These are yes or no findings as the source states them, for the method shown. In cells and extracts the contact can be indirect. A result given as binding can be weak or reduced; the word gives no strength. Sequences can lack the tags named with a protein.

The target in test [1] is T1, HA-EccGAS (Epinephelus coioides cyclic GMP-AMP synthase) (Epinephelus coioides).
T1 sequence: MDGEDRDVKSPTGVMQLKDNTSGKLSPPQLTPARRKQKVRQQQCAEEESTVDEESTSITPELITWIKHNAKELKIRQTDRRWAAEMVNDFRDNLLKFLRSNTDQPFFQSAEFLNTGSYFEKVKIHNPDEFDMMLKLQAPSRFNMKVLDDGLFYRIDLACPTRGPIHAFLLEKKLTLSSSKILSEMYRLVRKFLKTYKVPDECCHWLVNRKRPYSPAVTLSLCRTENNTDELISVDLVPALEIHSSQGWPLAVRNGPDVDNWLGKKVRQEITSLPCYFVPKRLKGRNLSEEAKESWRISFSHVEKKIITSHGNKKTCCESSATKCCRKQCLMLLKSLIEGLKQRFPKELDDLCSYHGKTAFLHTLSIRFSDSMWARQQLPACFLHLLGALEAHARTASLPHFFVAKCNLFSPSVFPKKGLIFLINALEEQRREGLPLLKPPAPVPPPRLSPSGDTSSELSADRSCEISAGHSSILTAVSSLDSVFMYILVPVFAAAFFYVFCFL
Nature of the test: co-IP; co-transfected cells lysed with RNase to remove a possible RNA bridge; Western blot. (A western blot detects proteins with antibodies after separation by electrophoresis.)

Test [2] shares this target. Nature of the test: co-IP; GB or HEK 293T cells co-transfected with HA-EccGAS and GFP-tagged NNV proteins; lysate precipitated with anti-HA magnetic beads; Western blot.
Test [3] has the same target. Put plainly: co-IP; co-IP of EccGAS and EcUBE3C in transfected cells (Fig. 7B); cells, tags and beads not told.
Test [4] deals with GFP-CP (NNV capsid protein) (nervous necrosis virus (OGNNV, RGNNV genotype)). Put plainly: co-IP; cells co-transfected with HA-EccGAS and GFP-tagged NNV proteins; lysate precipitated with anti-GFP magnetic beads; Western blot.
In test [5] the target is GFP-ProA (NNV Protein A, RNA-dependent RNA polymerase) (nervous necrosis virus (OGNNV, RGNNV genotype)). Described as above.

For “GFP-ProA (NNV Protein A, RNA-dependent RNA polymerase)”, the binding result in test [1] and in test [2] was “binds” in each case.

On to “EcUBE3C (Epinephelus coioides E3 ubiquitin ligase UBE3C) (enzyme)”, for which, in test [3], the binding result is recorded as “binds”.

As for GFP-CP (NNV capsid protein), the binding result in test [1] and in test [2] was “binds” in each case.

B1: HA-EccGAS (Epinephelus coioides cyclic GMP-AMP synthase) (protein, UniProt A0A509ZL19 1-503)
chain: MDGEDRDVKSPTGVMQLKDNTSGKLSPPQLTPARRKQKVRQQQCAEEESTVDEESTSITPELITWIKHNAKELKIRQTDRRWAAEMVNDFRDNLLKFLRSNTDQPFFQSAEFLNTGSYFEKVKIHNPDEFDMMLKLQAPSRFNMKVLDDGLFYRIDLACPTRGPIHAFLLEKKLTLSSSKILSEMYRLVRKFLKTYKVPDECCHWLVNRKRPYSPAVTLSLCRTENNTDELISVDLVPALEIHSSQGWPLAVRNGPDVDNWLGKKVRQEITSLPCYFVPKRLKGRNLSEEAKESWRISFSHVEKKIITSHGNKKTCCESSATKCCRKQCLMLLKSLIEGLKQRFPKELDDLCSYHGKTAFLHTLSIRFSDSMWARQQLPACFLHLLGALEAHARTASLPHFFVAKCNLFSPSVFPKKGLIFLINALEEQRREGLPLLKPPAPVPPPRLSPSGDTSSELSADRSCEISAGHSSILTAVSSLDSVFMYILVPVFAAAFFYVFCFL
In the case of B1, the binding entry in test [4] and in test [5] was “binds” each time.

The values above are taken from article PMC11264591.
